In PubChem BioAssay AID2685 (National Center for Advancing Translational Sciences (NCATS), 2010):
Among all 320,000 compounds or so, about 2,100 (0.66%) were called active. The shares of active, inactive and inconclusive entries below differ from those in the screen. Calls follow the shape of the dose curve; as a rule, active = well fitted inhibition curve with a large enough effect in the signal ratio, with a control signal flat (not every such curve was filed as active); inconclusive = small, poorly fitted or top-dose-only effect, or effect the other way, or a change in a side signal; inactive = flat fitted curve, though single readings scatter; the % refers to the signal ratio. Where the call is inconclusive, the potency comes from a doubtful curve fit.

Assay: qHTS Assay for Lipid Storage Modulators in Drosophila S3 Cells
Conditions: BODIPY lipid droplet fluorescence, 18-24 h, cells fed with added oleic acid; lipid storage change, negative = inhibition: at 46.1 µM (top of the series) unless noted
Method in brief: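 Laser-scanning cytometry quantifies lipid droplet accumulation (500–530 nm total intensity; droplet/cell object ratio) in oleic acid-fed (400 uM added) Drosophila S3 cells treated with a concentration series. 20 uM Triacsin C defined 100% inhibition.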
% is scaled to controls: 0 for no effect and ±100 for the full control effect; potency is read from the fitted curve at half-maximal effect.

Lipid storage change, negative = inhibition, inconclusive:
COc1ccc(S(=O)(=O)NCc2cccnc2)cc1C(=O)NC1CCCCC1 244%, CCN(CC)C(=O)c1sc2nc(Cc3ccccc3)[nH]c(=O)c2c1C 15.7% [at 9.22 µM], Cc1cccc(OCc2nnc(SCC(=O)c3ccccc3)o2)c1 29.2%, Cc1ccc(C(C)NC(=O)c2ccc3c(c2)OCO3)cc1C (stereo not given) 12.5%, N#Cc1ccccc1 12.6%, COc1ccc2c(c1)Sc1ccccc1N2CCN(C)C -5.34%, CCC(CO)NCC#Cc1ccccc1 (stereo not given) 96.8%, COc1ccc(/C(C)=N/NC(=O)c2sccc2-n2cccc2)cc1 -5.51%, COC(=O)c1cccc(NC(=O)/C=C/c2ccc([N+](=O)[O-])cc2)c1 17.8%, CCOc1ccc(N2C(=O)Nc3ccccc3C2(O)C(=O)NCc2ccc3c(c2)OCO3)cc1 (stereo not given) 5.85%, CC(C)(O)c1nnn(-c2ccccc2)c1C(F)(F)F -0.591%, Cc1cccn2c(=O)c(C=O)c(Sc3ncccn3)nc12 7.02%, COc1ccc(N(CC(=O)Nc2cccc(N(C)S(C)(=O)=O)c2)S(C)(=O)=O)cc1OC 12%, c1cncc(-c2noc(-c3ccc4ccccc4c3)n2)c1 188%, Cc1cccc(-n2nc3c(c2NC(=O)c2ccc4c(c2)OCO4)CS(=O)(=O)C3)c1C -17.8%, COc1cc(/C=N/NC(=O)c2c(-c3ccccc3)noc2C)ccc1O 11.4%, CCn1cc(C(=O)NCCCN2CCCC(C)C2)c(=O)c2cc(S(=O)(=O)N3CCc4ccccc4C3)ccc21 (stereo not given) -5%, C=CCSc1nccc(-c2cc(Cl)sc2Cl)n1 8.08%, O=C(Nc1nnc(SCc2ccc(F)cc2)s1)C1=COCCO1 0.739%, COCCN1Cc2cccc(C(=O)NCCCN3CCCC3=O)c2C1=O -7.01%, CC(C)(C)NC(=O)c1ccc2c(c1)CCO2 -46.3%, O=C(O)c1cccc(N2C(=O)CSC2=S)c1 7.88%, O=C(NCc1ccco1)C12CC3CC(C1)CC(C(=O)NCc1ccco1)(C3)C2 -0.773%, COc1cc(C(=O)OCC(=O)Nc2c(C)n(C)n(-c3ccccc3)c2=O)c([N+](=O)[O-])cc1OC -17.4%, CCC(C)c1c(O)nc(SCC(=O)N2CCOCC2)[nH]c1=O (stereo not given) -29.6%, O=c1cc(C(F)(F)F)[nH]c(=S)n1-c1ccccc1 -6.7%, c1ccc2oc(-c3ccc(Nc4nc(N5CCCCC5)nc(N5CCOCC5)n4)cc3)nc2c1 4.91%, O=C(C[n+]1cccc(NC(=O)c2ccccc2)c1)c1cccc([N+](=O)[O-])c1 16.3%, C[C@]12C=CC(=O)C=C1CC[C@@H]1[C@@H]2[C@@H](O)C[C@@]2(C)[C@H]1CC[C@]2(O)C(=O)COC(=O)CCC(=O)O 1.04%, O=c1[nH]c2ccccc2nc1/C=C(\O)c1cccs1 -39.8%, Cc1ccc(NCc2nnc(SCC(=O)N3c4ccccc4Sc4ccccc43)o2)c(C)c1 19.2%

Potency, inconclusive:
O=C(COC(=O)CNC(=O)c1ccco1)Nc1ncc(Cl)cc1Cl 0.92 µM [falling, full curve], Cc1ccc(C(=O)NCc2ccc3c(c2)OCO3)cc1Cl 3.66 µM [activator, full curve], CC(Oc1ccc2c3c(c(=O)oc2c1)CCCC3)C(=O)NCc1ccccn1 (stereo not given) 29.1 µM [falling, single point], COCCCN=CC1=C(O)CC(C)(C)CC1=O 6.51 µM [activator, single point], COc1ccc(OC)c2[nH]c(=O)c(CCNC(=O)c3cc4ccccc4o3)cc12 0.731 µM [rising, single point], Cc1nnc(NC(=O)CSc2nnc(C)n2-c2ccc(F)cc2)s1 2.31 µM [activator, single point], CC(C)CCNC(=O)c1ccc2c(SCC(=O)O)c3c(nc2c1)CCC3 6.51 µM [falling, single point], O=C(C1CC1)N1CCc2cc(S(=O)(=O)N3CCN(c4ccccc4)CC3)ccc21 0.58 µM [rising, single point], COc1ccc(-c2oc3ccccc3c2C(=O)OCc2ccc(O)cc2)cc1 29.1 µM [activator, single point]
